{"source": "patent US9682049B2", "about": "“Non-racemic mixtures of various ratios of D- and L-methadone and methods of treating pain using the same” (priority 2015, dated 2017)", "origin": "cited, not measured here", "test_system": "C-fiber evoked response", "conditions": "Carpenter et al. 2000; cited from earlier work", "data": [{"smiles": "CCC(=O)C(CC(C)N(C)C)(c1ccccc1)c1ccccc1", "note": "(racemic) [racemic methadone, methadone]", "values": [{"measurement": "inhibition of C-fiber evoked response", "value": "inhibited C-fiber evoked response similar to morphine"}]}, {"smiles": "CCC(=O)C(C[C@H](C)N(C)C)(c1ccccc1)c1ccccc1", "note": "[D-methadone, (S)-(+)-methadone]", "values": [{"measurement": "inhibition of C-fiber evoked response", "value": "weaker but similar inhibitory activity"}]}]}
